Drawing on the supplement of paper PMC10849652, this text covers log2 fold change for 35 targets.

Protein sequences, listed by entry. Tags and fused reporters are not part of them. Lines headed by an entry give the natural chain unless they say otherwise; changes in a name come on top.
UniProt Q92575: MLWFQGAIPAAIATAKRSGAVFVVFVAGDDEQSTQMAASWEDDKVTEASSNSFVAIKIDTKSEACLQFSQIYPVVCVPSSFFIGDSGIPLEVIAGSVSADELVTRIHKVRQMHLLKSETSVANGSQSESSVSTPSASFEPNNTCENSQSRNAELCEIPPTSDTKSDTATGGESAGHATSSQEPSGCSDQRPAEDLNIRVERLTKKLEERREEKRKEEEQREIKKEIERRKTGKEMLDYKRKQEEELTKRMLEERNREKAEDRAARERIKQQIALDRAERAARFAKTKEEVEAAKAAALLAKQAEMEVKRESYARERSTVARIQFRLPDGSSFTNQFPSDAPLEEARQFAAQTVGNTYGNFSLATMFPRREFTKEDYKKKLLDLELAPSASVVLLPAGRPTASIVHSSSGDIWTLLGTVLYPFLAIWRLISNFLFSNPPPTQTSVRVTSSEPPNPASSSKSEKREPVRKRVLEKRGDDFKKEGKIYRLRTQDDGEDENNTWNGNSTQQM
UniProt P60604: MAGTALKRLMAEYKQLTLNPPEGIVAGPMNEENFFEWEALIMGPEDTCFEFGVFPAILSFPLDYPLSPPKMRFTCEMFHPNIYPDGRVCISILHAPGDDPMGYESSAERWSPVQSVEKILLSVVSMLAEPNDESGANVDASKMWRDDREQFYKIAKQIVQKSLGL
UniProt Q5TAX3: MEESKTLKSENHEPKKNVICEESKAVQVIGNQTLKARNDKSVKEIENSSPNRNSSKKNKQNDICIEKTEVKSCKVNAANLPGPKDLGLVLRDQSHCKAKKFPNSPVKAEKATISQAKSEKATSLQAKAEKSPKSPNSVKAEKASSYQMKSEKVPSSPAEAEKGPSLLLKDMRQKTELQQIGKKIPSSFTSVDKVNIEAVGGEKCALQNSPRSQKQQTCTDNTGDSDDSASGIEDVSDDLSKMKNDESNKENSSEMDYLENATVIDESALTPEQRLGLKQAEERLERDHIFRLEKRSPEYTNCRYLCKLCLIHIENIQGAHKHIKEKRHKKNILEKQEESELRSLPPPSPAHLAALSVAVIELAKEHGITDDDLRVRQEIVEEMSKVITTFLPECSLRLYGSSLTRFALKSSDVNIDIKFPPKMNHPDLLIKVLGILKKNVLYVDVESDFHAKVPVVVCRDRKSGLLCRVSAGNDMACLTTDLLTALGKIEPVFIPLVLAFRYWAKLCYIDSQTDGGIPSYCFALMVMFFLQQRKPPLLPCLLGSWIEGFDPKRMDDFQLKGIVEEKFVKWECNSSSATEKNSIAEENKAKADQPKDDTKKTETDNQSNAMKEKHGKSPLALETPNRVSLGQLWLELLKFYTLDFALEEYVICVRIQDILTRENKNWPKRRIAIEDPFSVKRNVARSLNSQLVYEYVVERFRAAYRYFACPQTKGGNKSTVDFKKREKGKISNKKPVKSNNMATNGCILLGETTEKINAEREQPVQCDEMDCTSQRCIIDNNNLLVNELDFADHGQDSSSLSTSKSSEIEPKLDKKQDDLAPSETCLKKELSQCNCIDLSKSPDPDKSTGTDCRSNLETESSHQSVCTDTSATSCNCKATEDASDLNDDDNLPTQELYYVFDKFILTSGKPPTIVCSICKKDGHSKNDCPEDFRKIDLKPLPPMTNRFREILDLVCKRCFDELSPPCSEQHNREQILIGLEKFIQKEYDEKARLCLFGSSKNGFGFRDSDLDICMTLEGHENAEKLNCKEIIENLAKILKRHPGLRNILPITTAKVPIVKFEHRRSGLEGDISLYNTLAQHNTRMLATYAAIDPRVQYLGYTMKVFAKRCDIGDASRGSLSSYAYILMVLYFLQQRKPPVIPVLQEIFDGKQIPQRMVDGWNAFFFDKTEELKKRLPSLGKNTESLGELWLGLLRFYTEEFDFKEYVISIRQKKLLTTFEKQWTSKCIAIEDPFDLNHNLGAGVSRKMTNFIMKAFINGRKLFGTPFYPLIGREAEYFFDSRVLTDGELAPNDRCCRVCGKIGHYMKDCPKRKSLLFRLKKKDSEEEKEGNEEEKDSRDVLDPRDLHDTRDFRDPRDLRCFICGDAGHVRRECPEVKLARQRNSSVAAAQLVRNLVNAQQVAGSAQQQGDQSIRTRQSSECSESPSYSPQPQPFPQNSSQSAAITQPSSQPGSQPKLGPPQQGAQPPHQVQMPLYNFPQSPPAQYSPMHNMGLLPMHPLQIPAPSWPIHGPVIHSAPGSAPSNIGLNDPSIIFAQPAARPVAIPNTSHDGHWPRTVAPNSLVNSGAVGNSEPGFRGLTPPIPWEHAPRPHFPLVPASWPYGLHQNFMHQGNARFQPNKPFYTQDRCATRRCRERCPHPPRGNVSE
UniProt Q9UBT2: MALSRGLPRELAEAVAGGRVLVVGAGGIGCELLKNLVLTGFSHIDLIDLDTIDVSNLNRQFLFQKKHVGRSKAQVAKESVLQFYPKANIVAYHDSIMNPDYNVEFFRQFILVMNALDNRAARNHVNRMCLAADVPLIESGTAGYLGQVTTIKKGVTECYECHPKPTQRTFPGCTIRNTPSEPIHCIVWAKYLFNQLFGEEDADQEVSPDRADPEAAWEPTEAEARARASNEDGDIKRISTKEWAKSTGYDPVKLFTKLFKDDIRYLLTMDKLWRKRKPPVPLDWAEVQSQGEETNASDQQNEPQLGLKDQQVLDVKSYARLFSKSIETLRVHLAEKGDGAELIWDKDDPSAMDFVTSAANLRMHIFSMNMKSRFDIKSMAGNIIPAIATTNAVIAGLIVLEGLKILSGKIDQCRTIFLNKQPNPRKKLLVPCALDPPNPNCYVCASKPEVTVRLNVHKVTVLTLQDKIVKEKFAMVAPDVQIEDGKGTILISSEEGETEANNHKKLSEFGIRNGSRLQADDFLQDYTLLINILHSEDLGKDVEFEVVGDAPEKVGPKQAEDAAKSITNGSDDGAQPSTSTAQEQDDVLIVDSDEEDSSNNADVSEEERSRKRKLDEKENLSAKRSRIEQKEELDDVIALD
UniProt Q712K3: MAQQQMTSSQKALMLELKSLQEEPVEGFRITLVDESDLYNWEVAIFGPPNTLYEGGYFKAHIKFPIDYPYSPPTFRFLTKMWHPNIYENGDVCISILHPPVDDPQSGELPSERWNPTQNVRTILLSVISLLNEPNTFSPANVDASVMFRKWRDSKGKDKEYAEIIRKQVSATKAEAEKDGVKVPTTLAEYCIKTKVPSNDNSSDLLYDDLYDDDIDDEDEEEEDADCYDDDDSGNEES
UniProt Q14157: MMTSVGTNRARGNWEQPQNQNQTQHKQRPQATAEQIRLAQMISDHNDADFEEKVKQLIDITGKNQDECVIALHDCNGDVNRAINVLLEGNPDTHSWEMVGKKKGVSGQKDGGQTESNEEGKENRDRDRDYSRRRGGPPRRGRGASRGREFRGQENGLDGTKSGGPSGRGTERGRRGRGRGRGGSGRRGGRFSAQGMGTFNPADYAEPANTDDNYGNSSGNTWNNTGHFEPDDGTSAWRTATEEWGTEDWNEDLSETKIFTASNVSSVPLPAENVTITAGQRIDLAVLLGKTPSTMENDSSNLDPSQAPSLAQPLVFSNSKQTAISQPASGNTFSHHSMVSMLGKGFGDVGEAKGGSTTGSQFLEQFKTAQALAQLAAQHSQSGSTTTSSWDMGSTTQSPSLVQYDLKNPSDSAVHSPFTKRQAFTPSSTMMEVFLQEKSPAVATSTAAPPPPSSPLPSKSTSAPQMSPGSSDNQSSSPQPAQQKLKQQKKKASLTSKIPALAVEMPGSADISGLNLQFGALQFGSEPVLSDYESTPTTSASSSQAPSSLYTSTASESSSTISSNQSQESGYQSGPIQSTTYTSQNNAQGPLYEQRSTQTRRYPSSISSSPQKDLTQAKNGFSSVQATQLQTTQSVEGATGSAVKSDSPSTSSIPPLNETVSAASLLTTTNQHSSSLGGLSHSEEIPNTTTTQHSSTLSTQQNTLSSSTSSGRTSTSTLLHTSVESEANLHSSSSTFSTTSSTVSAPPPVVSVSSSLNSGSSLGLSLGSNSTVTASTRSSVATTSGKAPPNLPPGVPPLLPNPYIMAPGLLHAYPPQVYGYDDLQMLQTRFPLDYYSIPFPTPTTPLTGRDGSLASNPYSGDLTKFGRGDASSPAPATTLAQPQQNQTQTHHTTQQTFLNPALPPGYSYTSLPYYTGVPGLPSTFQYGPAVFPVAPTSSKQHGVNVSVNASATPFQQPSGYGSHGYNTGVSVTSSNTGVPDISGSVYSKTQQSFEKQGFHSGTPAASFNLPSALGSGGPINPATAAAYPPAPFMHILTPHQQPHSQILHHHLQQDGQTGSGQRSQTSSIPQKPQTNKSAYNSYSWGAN
UniProt Q96CW5, whole entry, looked up: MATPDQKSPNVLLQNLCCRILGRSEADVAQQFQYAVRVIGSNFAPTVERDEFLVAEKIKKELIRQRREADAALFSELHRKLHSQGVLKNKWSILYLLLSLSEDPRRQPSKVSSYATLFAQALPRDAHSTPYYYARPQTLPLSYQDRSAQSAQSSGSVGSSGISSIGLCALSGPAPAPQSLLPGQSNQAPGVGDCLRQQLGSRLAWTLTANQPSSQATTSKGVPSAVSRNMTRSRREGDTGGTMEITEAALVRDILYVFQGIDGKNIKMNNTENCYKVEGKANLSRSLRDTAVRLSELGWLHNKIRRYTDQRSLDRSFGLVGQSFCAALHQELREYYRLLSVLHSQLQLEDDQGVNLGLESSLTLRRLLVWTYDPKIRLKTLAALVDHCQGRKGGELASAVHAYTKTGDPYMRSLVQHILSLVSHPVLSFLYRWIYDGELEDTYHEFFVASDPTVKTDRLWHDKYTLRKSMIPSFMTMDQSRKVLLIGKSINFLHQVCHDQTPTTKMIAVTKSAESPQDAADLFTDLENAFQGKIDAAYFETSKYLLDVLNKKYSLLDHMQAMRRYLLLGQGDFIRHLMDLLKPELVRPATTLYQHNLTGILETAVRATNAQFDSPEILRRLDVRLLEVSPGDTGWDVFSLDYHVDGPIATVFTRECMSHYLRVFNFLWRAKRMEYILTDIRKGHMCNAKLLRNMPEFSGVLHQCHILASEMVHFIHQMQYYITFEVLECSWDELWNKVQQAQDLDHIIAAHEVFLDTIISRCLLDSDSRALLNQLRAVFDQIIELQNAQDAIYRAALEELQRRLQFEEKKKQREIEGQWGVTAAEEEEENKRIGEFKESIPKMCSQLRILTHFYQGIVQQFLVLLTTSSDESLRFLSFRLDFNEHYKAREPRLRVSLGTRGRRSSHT
UniProt Q9BQE3, whole entry, looked up: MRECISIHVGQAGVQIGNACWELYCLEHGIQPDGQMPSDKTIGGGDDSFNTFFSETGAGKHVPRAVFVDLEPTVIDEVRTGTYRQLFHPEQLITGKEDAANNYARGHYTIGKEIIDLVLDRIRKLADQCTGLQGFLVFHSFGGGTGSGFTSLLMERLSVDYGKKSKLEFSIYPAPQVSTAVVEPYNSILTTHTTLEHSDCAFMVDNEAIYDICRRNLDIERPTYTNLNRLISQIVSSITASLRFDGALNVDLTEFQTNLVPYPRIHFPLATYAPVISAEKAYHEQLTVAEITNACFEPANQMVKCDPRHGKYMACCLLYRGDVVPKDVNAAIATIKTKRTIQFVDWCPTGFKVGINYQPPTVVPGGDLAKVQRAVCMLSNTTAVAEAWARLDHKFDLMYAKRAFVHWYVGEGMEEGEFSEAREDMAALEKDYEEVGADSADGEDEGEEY
UniProt P61081: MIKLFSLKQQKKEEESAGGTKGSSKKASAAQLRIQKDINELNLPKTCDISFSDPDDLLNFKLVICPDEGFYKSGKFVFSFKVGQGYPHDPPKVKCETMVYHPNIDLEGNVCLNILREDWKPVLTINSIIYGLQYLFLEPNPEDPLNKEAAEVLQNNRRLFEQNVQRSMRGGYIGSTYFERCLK
UniProt P51668: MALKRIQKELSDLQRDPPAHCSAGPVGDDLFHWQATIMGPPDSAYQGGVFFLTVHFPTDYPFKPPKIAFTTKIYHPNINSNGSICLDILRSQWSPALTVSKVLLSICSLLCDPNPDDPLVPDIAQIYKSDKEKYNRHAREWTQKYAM
UniProt Q3KQV9: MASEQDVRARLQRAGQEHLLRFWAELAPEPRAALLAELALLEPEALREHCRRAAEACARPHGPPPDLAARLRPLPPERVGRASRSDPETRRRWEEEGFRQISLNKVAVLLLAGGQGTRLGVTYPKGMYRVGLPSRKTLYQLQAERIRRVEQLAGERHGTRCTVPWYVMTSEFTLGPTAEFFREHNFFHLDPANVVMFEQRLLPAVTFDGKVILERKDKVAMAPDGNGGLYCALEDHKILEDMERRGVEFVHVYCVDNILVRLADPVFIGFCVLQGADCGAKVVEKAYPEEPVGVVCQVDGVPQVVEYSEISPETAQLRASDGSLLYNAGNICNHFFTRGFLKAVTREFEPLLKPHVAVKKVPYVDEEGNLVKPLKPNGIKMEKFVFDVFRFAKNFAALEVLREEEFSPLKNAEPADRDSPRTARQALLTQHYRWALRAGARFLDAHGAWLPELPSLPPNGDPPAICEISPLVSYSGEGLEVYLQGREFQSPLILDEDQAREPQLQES

Some of the results follow.

Compound in one assay: CN1CC[C@H](c2c(O)cc(O)c3c(=O)cc(-c4ccccc4Cl)oc23)[C@H](O)C1 [alvocidib]
The experiment in a line: log2 fold change, soluble protein after heating vs DMSO (PISA); higher = thermal stabilisation; K562 lysate, 10 uM; active = over 0.2 and 3.5 SD of the protein, either way, in both replicates (recomputed). In short, it runs like this: (§1)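 Pellets of K562 cells were dounce-homogenised in PBS pH 7.4 with 1 mM MgCl2, and the crude extract was held at 1 mg/mL protein for a 30 min treatment with 10 μM compound. Aliquots were heated for 3 min over 48°C-58°C and pooled before NP-40 was added to 0.5% at 4°C. The supernatant from 21,000xg for 90 min was quantified by TMTpro 16plex LC-MS/MS with channel sums equalised. Values are reported from duplicates as log-two fold change in thermal stability relative to solvent controls.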
Regarding UCK1 isoform 4 (UniProt Q9HA47), the log2 fold change was inactive: 0.033.

In the case of TUBA3C (UniProt P0DPH7), the log2 fold change is inactive: -0.012.

Consider UBE2Z (UniProt Q9H832), for which the log2 fold change is inactive: -0.018.

As for UBE2F isoform 2 (UniProt Q969M7), the log2 fold change is inactive: -0.022.

In the case of TUBAL3 (UniProt A6NHL2), the log2 fold change is inactive: -0.276.

With UBXN4 (UniProt Q92575), the log2 fold change is inactive: 0.003.

For UBE4A isoform 2 (UniProt Q14139), the log2 fold change is inactive: 0.

As to UBAP1 (UniProt Q9NZ09), the log2 fold change was inactive: -0.01.

Take UBE2G2 (UniProt P60604): the log2 fold change is inactive: 0.025.

For the target UBR1 (UniProt Q8IWV7), the log2 fold change was inactive: -0.018.

As to TXLNG (UniProt Q9NUQ3), the log2 fold change is inactive: 0.013.

Turning to UBE3D (UniProt Q7Z6J8), the log2 fold change is inactive: -0.06.

Take TUT4 (UniProt Q5TAX3): the log2 fold change was inactive: -0.022.

TWF2 (UniProt Q6IBS0): the log2 fold change was inactive: -0.034.

In the case of U2SURP (UniProt O15042), the log2 fold change is inactive: -0.002.

As for UBA2 (UniProt Q9UBT2), the log2 fold change is inactive: 0.018.

TXNDC5 (UniProt Q8NBS9): the log2 fold change is inactive: 0.029.

In the case of UBE2R2 (UniProt Q712K3), the log2 fold change was inactive: 0.048.

For UBE2L3 isoform 3 (UniProt P68036), the log2 fold change is inactive: 0.004.

For the target UBE3A (UniProt Q05086), the log2 fold change was inactive: 0.008.

As for UBAP2L isoform 5 (UniProt Q14157), the log2 fold change is inactive: 0.019.

As for TUBGCP3 (UniProt Q96CW5), the log2 fold change was inactive: -0.003.

As to TUBA1B (UniProt P68363), the log2 fold change is inactive: -0.027.

Consider TUBA1C (UniProt Q9BQE3), for which the log2 fold change was inactive: 0.

For UBE2M (UniProt P61081), the log2 fold change is inactive: -0.025.

Regarding TYMS (UniProt P04818), the log2 fold change is inactive: 0.015.

Turning to UBE2D1 (UniProt P51668), the log2 fold change was inactive: 0.003.

Regarding UBQLN4 (UniProt Q9NRR5), the log2 fold change was inactive: 0.026.

In the case of TWSG1 (UniProt Q9GZX9), the log2 fold change was inactive: -0.011.

Turning to UBA1 (UniProt P22314), the log2 fold change is inactive: 0.012.

UBR5 (UniProt O95071): the log2 fold change was inactive: -0.011.

On to UAP1L1 (UniProt Q3KQV9), for which the log2 fold change is inactive: 0.05.

UBP1 (UniProt Q9NZI7): the log2 fold change is inactive: 0.049.

For the target UBE2NL (UniProt Q5JXB2), the log2 fold change is inactive: 0.02.

In the case of TUBD1 (UniProt Q9UJT1), the log2 fold change is inactive: -0.029.

Compound in another assay: CN1CCc2c(c3ccccc3n2Cc2ccc(C(=O)NO)cc2)C1 [Tubastatin A]
The assay is described as above. The method in brief: as §1
Take UCK1 isoform 4 (UniProt Q9HA47): the log2 fold change was inactive: -0.129.

TUBA3C (UniProt P0DPH7): the log2 fold change was inactive: -0.15.

On to UBE2Z (UniProt Q9H832), for which the log2 fold change is inactive: -0.036.

Turning to UBE2F isoform 2 (UniProt Q969M7), the log2 fold change is inactive: -0.049.

As to TUBAL3 (UniProt A6NHL2), the log2 fold change is inactive: 0.109.

Take UBXN4 (UniProt Q92575): the log2 fold change is inactive: 0.009.

For UBE4A isoform 2 (UniProt Q14139), the log2 fold change is inactive: -0.087.

As to UBAP1 (UniProt Q9NZ09), the log2 fold change is inactive: 0.008.

Consider UBE2G2 (UniProt P60604), for which the log2 fold change was inactive: -0.007.

For UBR1 (UniProt Q8IWV7), the log2 fold change is inactive: -0.026.

For the target TXLNG (UniProt Q9NUQ3), the log2 fold change is inactive: -0.01.

Take UBE3D (UniProt Q7Z6J8): the log2 fold change is inactive: 0.017.

With TUT4 (UniProt Q5TAX3), the log2 fold change is inactive: -0.1.

Take TWF2 (UniProt Q6IBS0): the log2 fold change is inactive: 0.031.

Consider U2SURP (UniProt O15042), for which the log2 fold change was inactive: -0.101.

As for UBA2 (UniProt Q9UBT2), the log2 fold change was inactive: 0.009.

On to TXNDC5 (UniProt Q8NBS9), for which the log2 fold change is inactive: 0.052.

UBE2R2 (UniProt Q712K3): the log2 fold change is inactive: 0.006.

On to UBE2L3 isoform 3 (UniProt P68036), for which the log2 fold change is inactive: 0.053.

For UBE3A (UniProt Q05086), the log2 fold change is inactive: 0.003.

For the target UBAP2L isoform 5 (UniProt Q14157), the log2 fold change was inactive: 0.008.

Turning to TUBGCP3 (UniProt Q96CW5), the log2 fold change was inactive: -0.094.

On to TUBA1B (UniProt P68363), for which the log2 fold change is inactive: -0.056.

With TUBA1C (UniProt Q9BQE3), the log2 fold change was inactive: -0.001.

For UBE2M (UniProt P61081), the log2 fold change is inactive: 0.038.

TYMS (UniProt P04818): the log2 fold change was inactive: -0.023.

In the case of UBE2D1 (UniProt P51668), the log2 fold change was inactive: -0.045.

With UBQLN4 (UniProt Q9NRR5), the log2 fold change was inactive: 0.027.

For the target TWSG1 (UniProt Q9GZX9), the log2 fold change was inactive: 0.

On to UBA1 (UniProt P22314), for which the log2 fold change was inactive: -0.082.

With UBR5 (UniProt O95071), the log2 fold change was inactive: -0.084.

As for UAP1L1 (UniProt Q3KQV9), the log2 fold change is inactive: -0.132.

As to UBP1 (UniProt Q9NZI7), the log2 fold change was inactive: -0.121.

For UBE2NL (UniProt Q5JXB2), the log2 fold change was inactive: 0.057.

As to TUBD1 (UniProt Q9UJT1), the log2 fold change is inactive: -0.051.
